± gives the standard deviation of the averaged measurements. The list shows a part of the results. Most values come without repeats; read them as rough.
Each molecule was assayed on RAW 264.7 macrophages infected with S. aureus JE2-lux (assay: host macrophage viability (CellTiter-Fluor) relative to DMSO vehicle; higher = more viable host cells). Settings: 10 µM; treatment time 4 h; gentamicin 50 µg/ml.

Compound | host macrophage viability [%]
CCOc1ccc(-c2nc(SCC(=O)NCCC(C)C)n3[nH]c(=O)cc3n2)cc1 | 138
Cc1ccc(CN2CCC(CNC(=O)c3cn[nH]c3C3CCNCC3)CC2)cc1 | 114
CCc1cccc(CC)c1NC(=O)c1cncc(Br)c1 | 123
O=C(CSc1nc2[nH]ncc2c(=O)n1-c1ccccc1Br)NCc1ccco1 | 102 ± 13
CC1=NNC(=O)/C1=N\Nc1ccc(S(=O)(=O)Nc2nc(C)cc(C)n2)cc1 | 106
Cc1ccccc1-c1nc(Cn2c(=O)c3cccnc3n(-c3ccccc3)c2=O)c(C)o1 | 118
Cn1c(NC(=O)COc2ccccc2)cc(=O)n(C)c1=O | 124
O=C1NC2=C(C(=O)N(Cc3ccc(F)cc3)C2)C(c2ccc([N+](=O)[O-])cc2)N1 (centres undefined) | 108
NC(=O)C1CCN(C(=O)NCc2noc3ccccc23)CC1 | 119
COC(=O)C1=C(C)Nc2nc(SCc3ccccc3)[nH]c(=O)c2C1c1cccc(F)c1 (centres undefined) | 117
Cn1c(=O)[nH]c(=O)c2c1nc(SCc1ccccc1Cl)n2CCc1ccccc1 | 105
COc1ccc(C(=O)N2CCOC2CNC(=O)C(=O)NCc2ccccc2)cc1 (centres undefined) | 109
COc1cc(/C=C\C(=O)NCCc2cc3cc(C)c(C)cc3[nH]c2=O)cc(OC)c1OC | 102
CC(=O)N(C(C)=O)c1ncnc2sc3c(c12)CCCC3 | 77.8
COc1ccc(NC(=O)N2CCC(n3cnc4cc(C(F)(F)F)ccc43)CC2)cc1 | 110
Cc1cc(C)c2nc(NC(=O)Nc3cccc(Cl)c3)sc2c1 | 115
COc1cc(NC(=O)Cn2ncn3nc4c(c3c2=O)CCCC4)cc(OC)c1 | 119
O=C(Nc1ccc(OC(F)(F)F)cc1)c1ccc2nc[nH]c2c1 | 133
Cc1sc(NC(=O)c2cc3cc([N+](=O)[O-])ccc3s2)c(C#N)c1C | 109
O=C(Nc1ccc2[nH]cnc2c1)c1ccc2nccnc2c1 | 109
O=C1c2ccccc2-c2c(Nc3ccccc3)c(=O)[nH]c3cccc1c23 | 113
COc1ccc(C(=O)/C=C2\C(=O)Nc3ccccc32)cc1 | 93.9
Cc1oc2c(c1C(=O)O)C(=O)c1ccccc1C2=O | 124
CCOC(=O)C(C)Sc1ncnc2c1nnn2Cc1ccc(F)cc1 (centres undefined) | 110 ± 4.6
COc1cccc(NC(=O)N2CCC(NC(=O)c3ccc(F)cc3)CC2)c1 | 108
O=C(NCc1nnnn1-c1ccccc1)c1cc(=O)c2ccccc2o1 | 113

Copied from above for reference:
Compound | host macrophage viability [%]
Cc1ccc(CN2CCC(CNC(=O)c3cn[nH]c3C3CCNCC3)CC2)cc1 | 114
CCc1cccc(CC)c1NC(=O)c1cncc(Br)c1 | 123
O=C(CSc1nc2[nH]ncc2c(=O)n1-c1ccccc1Br)NCc1ccco1 | 102 ± 13
CC1=NNC(=O)/C1=N\Nc1ccc(S(=O)(=O)Nc2nc(C)cc(C)n2)cc1 | 106

More entries:

Compound | host macrophage viability [%]
Cn1c(=O)c2nc(SCC(=O)c3ccc(Cl)c(Cl)c3)[nH]c2n(C)c1=O | 131
Cc1oc2ncnc(OCC(=O)Nc3cccc(Cl)c3C)c2c1C | 116
CCCC(=O)Nc1sc(Nc2ccc(C)cc2)nc1C(N)=O | 88.1
COc1ccc(C(CNc2nn3cnnc3c3ccccc23)N2CCOCC2)cc1 (centres undefined) | 96.6
O=C(Cc1cc(=O)[nH]c(=O)[nH]1)NCCN1CCOCC1 | 111
COCCCNC(=O)NC(c1ccccc1)c1nnc(-c2ccc(Cl)cc2)o1 (centres undefined) | 103
O=C(O)C(Sc1nncc(-c2ccccc2)n1)c1ccccc1 (centres undefined) | 103
Nc1ncnc(Nc2cc(C(F)(F)F)ccc2Cl)c1[N+](=O)[O-] | 106
COC(=O)c1ccc(C(=O)Nc2nc3c(cc4c5c(cccc53)CC4)s2)cc1 | 117 ± 20
CN1C(=O)c2cccc(NC(=O)c3cc4c(ccc5ccccc54)oc3=O)c2C1=O | 113
CC(NC(=O)CC1CCN(C(=O)c2cc3cc(Cl)ccc3[nH]2)CC1)c1ccccc1 (centres undefined) | 89.5
CCn1nc(C)c2ccnc(N3CCC(C(=O)Nc4cc(Cl)c(OC)cc4OC)CC3)c21 | 134
Cc1noc(C)c1CCC(=O)N1CCC[C@@H](CNC(=O)c2ccco2)C1 | 121
Cc1ccc(COc2cccc3c2CCNC3=O)cc1 | 117
CC1(C)CC(=O)C2=C(C1)Nc1ccccc1N(CC(=O)NCc1ccncc1)C2c1ccco1 (centres undefined) | 130
CCOc1ccc(NC(=S)NNc2nc(N3CCCC3)nc(N3CCCC3)n2)cc1 | 110
Cn1c(=O)c(-c2noc(C(=O)N3CCC(N4CCCCC4)CC3)n2)nn(-c2ccc(F)cc2)c1=O | 105
Cc1ccc(C)c(COc2coc(CSc3nncn3C)cc2=O)c1 | 122
O=C(CSCc1ccccc1)Nc1nc2c(s1)COc1ccccc1-2 | 95.8
Cc1ccc(NCc2nc3c([nH]2)c(=O)n(C)c(=O)n3C)cc1 | 100
COc1ccc(NC(=O)c2ncoc2-c2ccc(OC)c(OC)c2)c(OC)n1 | 106
CN(C)S(=O)(=O)c1ccc(C(=O)NNC(=O)c2ccc3c(c2)CCCC3)cc1 | 105
O=C(NCC1COc2ccccc2O1)C(=O)c1cn(CC(=O)N2CCCCC2)c2ccccc12 (centres undefined) | 99.2
Clc1ccccc1-n1cc(-c2ccccc2)c2c(N3CCCCC3)ncnc21 | 120
COc1ccc(NC(=O)CSc2ncnc3ccccc23)cc1OC | 116 ± 3.9
CCOC(=O)c1cccc(NC(=O)CCCc2nc3cccnc3n2Cc2ccc(C)cc2)c1 | 98

Compound | host macrophage viability [%]
COc1ccc(CNC(=O)CSc2nc3ccc(C(C)C)cc3cc2C#N)cc1 | 113
CCc1nnc2ccc(C(=O)N3CCN(CC)CC3)cn12 | 131
CCn1c(=O)[nH]c2cc(-c3noc(COc4cccc(C)c4)n3)ccc21 | 116
CCCC(=O)N1CCN(c2c(C)n(C)c(=O)n(C)c2=O)CC1 | 131
Cc1ccc(S(=O)(=O)Nc2ccc(N3CCn4c(nc5ccccc54)C3)cc2C)cc1 | 142
Cn1c(=O)c2c(ncn2CC(=O)c2ccc([N+](=O)[O-])cc2)n(C)c1=O | 122
N#Cc1c(NC(=O)c2ccc(C(=O)Nc3sc4c(c3C#N)CCCC4)s2)sc2c1CCCC2 | 114
c1ccc(-c2oc3ncnc(N4CCN(Cc5ccc6c(c5)OCO6)CC4)c3c2-c2ccccc2)cc1 | 113
Cc1nn(-c2ccc(-c3noc(C4CC4)n3)cc2)cc1C(=O)N1CCn2c1nc1ccccc12 | 125
COc1cc([N+](=O)[O-])cc2sc(NC(=O)CSc3ccc(Cl)cc3)nc12 | 106
Cc1nn(C(=O)c2cccnc2)c(C)c1Sc1ccccc1[N+](=O)[O-] | 101
COc1cc(NC(=O)C2(C)CCCO2)ccc1NC(=O)CN1CCOCC1 (centres undefined) | 116
Cc1cc(-c2cn[nH]c2C2CCN(C(=O)c3ccncc3)CC2)on1 | 128
O=C(NC1CCCc2ccccc21)c1cc2n(n1)CCCN(Cc1ccccc1)C2=O (centres undefined) | 99.3
O=C(COc1ccccc1)Nc1cc(=O)[nH]c(=O)[nH]1 | 106
O=C(c1ccco1)N1CCN(c2cc(=O)n(Cc3ccc(F)cc3)c(=O)[nH]2)CC1 | 119.2 ± 0.67
Cn1c(=O)[nH]c(=O)c2c1nc(Br)n2Cc1ccc(F)cc1 | 104 ± 4.9
O=C(CCn1c(=S)[nH]c2cc3c(cc2c1=O)OCO3)NCCc1ccc(Cl)cc1 | 128
Cc1ccc(C(c2sc3ncnn3c2O)N2CCOCC2)cc1 (centres undefined) | 118
CC1=C(C(=O)OCc2ccccc2)C(c2cccs2)C(C#N)=C(N)O1 (centres undefined) | 125
C=CCOc1ccccc1NC(=O)Cn1c(=O)oc2cc(Cl)ccc21 | 95.8
CC(=O)N1CCCc2ccc(NC(=O)C(=O)NCc3cccnc3)cc21 | 104
CCc1nc(NCc2ccc(OC)cc2OC)c2onc(-c3ccccc3)c2n1 | 93.2
Cc1ccnc(SCc2cc(=O)c(OC(=O)COc3ccc(F)cc3)co2)n1 | 116
CCOCCn1c(SCc2c(F)cccc2Cl)nc2c1c(=O)[nH]c(=O)n2C | 115
Cc1ccc(NC2CC(=O)N(CCc3ccccc3)C2=O)cc1 (centres undefined) | 119

Compound | host macrophage viability [%]
COC(=O)c1ccc(CSc2ncnc3ccccc23)o1 | 106 ± 7.3
CCC(Sc1ccc2nnc(-c3cccnc3)n2n1)C(=O)O (centres undefined) | 119
O=C(N/N=C\c1ccco1)c1cc([N+](=O)[O-])cc([N+](=O)[O-])c1 | 103 ± 2.8
O=c1[nH]c2cc3c(cc2c(=O)n1Cc1nc(-c2ccccc2Br)no1)OCO3 | 118
CC(C)c1csc(-c2csc(S(=O)(=O)NCc3ccc4c(c3)OCO4)c2)n1 | 70.2
Cc1nc(-c2csc(S(=O)(=O)NCc3ccccc3Cl)c2)sc1C | 86.5
Cc1cc2oc(C(=O)NCc3ccncc3)c(C)c2cc1C | 113
CSC1=C(C#N)C(c2ccco2)C(C(=O)Nc2ccccc2C)=C(C)N1 (centres undefined) | 126
NC(=O)c1ccc(NC(=O)c2cn(Cc3cccc(F)c3)nc2OCc2cccc(F)c2)cc1 | 104
Cc1ccc(Cn2nnc3c(SCC(=O)NCc4ccc5c(c4)OCO5)ncnc32)cc1 | 117 ± 13
Nc1c(-c2nc(-c3ccncc3)no2)nnn1-c1ccccc1Cl | 120
O=C(CCn1c(=O)sc2ccccc21)Nc1ccccc1F | 118 ± 14
COc1cccc(-c2nnc(SCC(=O)Nc3ccc(C(C)=O)cc3)n2-n2cccc2)c1 | 92.5
Cc1n[nH]c(=O)nc1N/N=C/c1ccc(N(C)C)cc1 | 113
O=C(Nc1ccccc1-n1cccc1)c1cnccn1 | 104
COCCn1c(SCC(=O)Nc2cccc([N+](=O)[O-])c2)nc2c(c1=O)SCC2 | 124
O=C(CS(=O)(=O)c1c[nH]c2ccccc12)N1CCc2ccccc21 | 124
CCc1cccc2sc(N(Cc3ccccn3)C(=O)c3ccc(C#N)cc3)nc12 | 139
CCOc1ccccc1NC(=O)CC1Sc2ccc(C(F)(F)F)cc2NC1=O (centres undefined) | 132
Cc1ccc(Nc2nc(Nc3ccc4c(c3)OCO4)nc(N3CCOCC3)n2)cc1C | 105
COCCn1c2ccccc2n2c(=O)n(Cc3ccc(F)cc3)nc12 | 125
Cc1ccc2c(c1)NC(SCC(=O)Nc1ccc(C)c(F)c1)=NS2(=O)=O | 123
Cc1ccnc(SCc2cc(=O)c(OC(=O)c3ccc(Br)o3)co2)n1 | 109
Cn1c(=O)c2c(nc(CN3CCC(C(N)=O)CC3)n2Cc2ccccc2)n(C)c1=O | 119
CC1=C(C(=O)Nc2ccc(Cl)cc2)C(c2ccco2)C(C#N)=C(SCc2ccccc2)N1 (centres undefined) | 105
CC(=O)c1cccc(N(C(=O)c2cnccn2)C(C(=O)NC2CCCC2)c2cccs2)c1 (centres undefined) | 105

— the supplement of paper PMC12578635
